Record: PubChem BioAssay AID1259308 (NCATS, 2017)

Aim: 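Candidate targets for better recombinant protein yield in mammalian cells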 (primary screen)
System: human HEK293 embryonic kidney cells stably expressing firefly luciferase (HEK-CMV-Luc2-Hygro)
Knock-down reagent: single siRNA against human genes, 0.8 pmol siRNA per well
Duration: 72 h
Measured: 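Reporter luminescence and viable-cell signal on separate replicate plates, given as percent of non-targeting control and median/MAD z-scores, plus per-cell luciferase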
Direction: total luciferase, z-score and total luciferase, % of control: higher = more reporter protein produced
Hit rule: 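An siRNA counts as active if its total luciferase robust z-score exceeds 3; genes with two or more such siRNAs out of three were retested with fresh siRNAs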
Calls: active = raised luciferase; inactive = no rise
This is one part, drawn at random, of about 59,000 reagents tested. About 1,510 of them (2.6%) count as active. 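Calls use total luciferase alone and ignore viability, so some active siRNAs may act by altering cell number.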 Unmarked entries are inactive. The numbers tell different reagents against one gene apart. Not all columns of the deposit are shown.

The first 5 entries as a preview:
SENP1 #1: total luciferase, z-score = -0.943; total luciferase, % of control = 63.1
SENP1 #2: total luciferase, z-score = 0.881; total luciferase, % of control = 99.4
SENP1 #3: total luciferase, z-score = 0.454; total luciferase, % of control = 90.9
COL8A1 #1: total luciferase, z-score = -1.7; total luciferase, % of control = 48.1
COL8A1 #2: total luciferase, z-score = 1.12; total luciferase, % of control = 104

Main list, repeating the preview:
SENP1 #1: total luciferase, z-score = -0.943; total luciferase, % of control = 63.1
SENP1 #2: total luciferase, z-score = 0.881; total luciferase, % of control = 99.4
SENP1 #3: total luciferase, z-score = 0.454; total luciferase, % of control = 90.9
COL8A1 #1: total luciferase, z-score = -1.7; total luciferase, % of control = 48.1
COL8A1 #2: total luciferase, z-score = 1.12; total luciferase, % of control = 104
COL8A1 #3: total luciferase, z-score = -1.25; total luciferase, % of control = 57.1
MYO9A #1: total luciferase, z-score = -1.11; total luciferase, % of control = 59.7
MYO9A #2: total luciferase, z-score = -1.62; total luciferase, % of control = 49.7
MYO9A #3: total luciferase, z-score = -0.98; total luciferase, % of control = 62.4
BTF3L4P2 #1: total luciferase, z-score = -0.423; total luciferase, % of control = 73.5
BTF3L4P2 #2: total luciferase, z-score = 0.289; total luciferase, % of control = 87.6
BTF3L4P2 #3: total luciferase, z-score = 0.195; total luciferase, % of control = 85.8
CACNB4 #1: total luciferase, z-score = -0.051; total luciferase, % of control = 80.9
CACNB4 #2: total luciferase, z-score = -0.64; total luciferase, % of control = 69.2
CACNB4 #3: total luciferase, z-score = 0.839; total luciferase, % of control = 98.6
CTSL3P #1: total luciferase, z-score = -0.892; total luciferase, % of control = 64.1
CTSL3P #2: total luciferase, z-score = -0.305; total luciferase, % of control = 75.8
CTSL3P #3: total luciferase, z-score = 1.79; total luciferase, % of control = 118
PPA1 #1: total luciferase, z-score = -0.359; total luciferase, % of control = 74.7
PPA1 #2: total luciferase, z-score = -0.502; total luciferase, % of control = 71.9
PPA1 #3: total luciferase, z-score = 0.357; total luciferase, % of control = 89
ADSS2 #1: total luciferase, z-score = -0.609; total luciferase, % of control = 69.8
ADSS2 #2: total luciferase, z-score = 0.697; total luciferase, % of control = 95.8
ADSS2 #3: total luciferase, z-score = -0.997; total luciferase, % of control = 62
SLC15A3 #1: total luciferase, z-score = -0.584; total luciferase, % of control = 70.3
SLC15A3 #2: total luciferase, z-score = 0.482; total luciferase, % of control = 91.5
SLC15A3 #3: total luciferase, z-score = -2.94; total luciferase, % of control = 23.5
MIR663AHG #1: total luciferase, z-score = -0.0645; total luciferase, % of control = 80.6
MIR663AHG #2: total luciferase, z-score = -0.0494; total luciferase, % of control = 80.9
MIR663AHG #3: total luciferase, z-score = -0.0133; total luciferase, % of control = 81.6
RBBP9 #1: total luciferase, z-score = 0.803; total luciferase, % of control = 97.8
RBBP9 #2: total luciferase, z-score = 0.0394; total luciferase, % of control = 82.7
RBBP9 #3: total luciferase, z-score = 0.64; total luciferase, % of control = 94.6
IGF2BP3 #1: total luciferase, z-score = -2.43; total luciferase, % of control = 33.6
IGF2BP3 #2: total luciferase, z-score = -0.779; total luciferase, % of control = 66.4
IGF2BP3 #3: total luciferase, z-score = -0.0615; total luciferase, % of control = 80.7
RNF13 #1: total luciferase, z-score = -0.616; total luciferase, % of control = 69.6
RNF13 #2: total luciferase, z-score = -0.886; total luciferase, % of control = 64.3
RNF13 #3: total luciferase, z-score = -0.115; total luciferase, % of control = 79.6
FANCD2OS #1: total luciferase, z-score = -1.78; total luciferase, % of control = 46.4
FANCD2OS #2: total luciferase, z-score = -1.46; total luciferase, % of control = 52.9
FANCD2OS #3: total luciferase, z-score = -0.458; total luciferase, % of control = 72.8
